Experimental data published in publication PMC6092487.
These are yes or no findings as the source states them, for the method shown. Binding seen in cells or lysates may run through a third protein. Binding calls can cover weak binding; strength is not graded here.

Sequences of proteins named here, by UniProt entry; tags and fusion partners are left off. A change or cut given only in a name is not applied to a line headed by its entry. Residues count along the entry.
UniProt Q8TCG5: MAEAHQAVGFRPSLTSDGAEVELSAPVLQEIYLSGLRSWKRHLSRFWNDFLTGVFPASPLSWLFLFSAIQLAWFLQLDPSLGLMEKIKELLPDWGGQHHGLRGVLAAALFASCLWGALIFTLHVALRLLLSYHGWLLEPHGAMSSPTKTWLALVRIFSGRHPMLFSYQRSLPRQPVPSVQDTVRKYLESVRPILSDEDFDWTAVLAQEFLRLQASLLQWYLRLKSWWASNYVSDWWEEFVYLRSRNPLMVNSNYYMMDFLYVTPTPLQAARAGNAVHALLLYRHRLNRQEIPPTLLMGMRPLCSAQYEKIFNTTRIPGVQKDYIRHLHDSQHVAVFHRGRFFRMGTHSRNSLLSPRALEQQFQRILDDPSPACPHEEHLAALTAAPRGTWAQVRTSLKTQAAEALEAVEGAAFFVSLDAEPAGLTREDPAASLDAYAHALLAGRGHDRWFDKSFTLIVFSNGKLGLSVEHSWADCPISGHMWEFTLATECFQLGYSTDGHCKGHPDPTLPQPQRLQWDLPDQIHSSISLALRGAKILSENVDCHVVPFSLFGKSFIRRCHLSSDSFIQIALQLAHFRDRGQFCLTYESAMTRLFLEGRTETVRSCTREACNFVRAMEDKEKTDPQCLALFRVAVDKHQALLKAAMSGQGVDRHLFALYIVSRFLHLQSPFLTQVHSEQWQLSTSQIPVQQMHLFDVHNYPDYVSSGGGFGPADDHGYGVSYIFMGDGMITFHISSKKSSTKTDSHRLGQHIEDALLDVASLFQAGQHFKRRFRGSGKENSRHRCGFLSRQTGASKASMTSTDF
UniProt F1LN46: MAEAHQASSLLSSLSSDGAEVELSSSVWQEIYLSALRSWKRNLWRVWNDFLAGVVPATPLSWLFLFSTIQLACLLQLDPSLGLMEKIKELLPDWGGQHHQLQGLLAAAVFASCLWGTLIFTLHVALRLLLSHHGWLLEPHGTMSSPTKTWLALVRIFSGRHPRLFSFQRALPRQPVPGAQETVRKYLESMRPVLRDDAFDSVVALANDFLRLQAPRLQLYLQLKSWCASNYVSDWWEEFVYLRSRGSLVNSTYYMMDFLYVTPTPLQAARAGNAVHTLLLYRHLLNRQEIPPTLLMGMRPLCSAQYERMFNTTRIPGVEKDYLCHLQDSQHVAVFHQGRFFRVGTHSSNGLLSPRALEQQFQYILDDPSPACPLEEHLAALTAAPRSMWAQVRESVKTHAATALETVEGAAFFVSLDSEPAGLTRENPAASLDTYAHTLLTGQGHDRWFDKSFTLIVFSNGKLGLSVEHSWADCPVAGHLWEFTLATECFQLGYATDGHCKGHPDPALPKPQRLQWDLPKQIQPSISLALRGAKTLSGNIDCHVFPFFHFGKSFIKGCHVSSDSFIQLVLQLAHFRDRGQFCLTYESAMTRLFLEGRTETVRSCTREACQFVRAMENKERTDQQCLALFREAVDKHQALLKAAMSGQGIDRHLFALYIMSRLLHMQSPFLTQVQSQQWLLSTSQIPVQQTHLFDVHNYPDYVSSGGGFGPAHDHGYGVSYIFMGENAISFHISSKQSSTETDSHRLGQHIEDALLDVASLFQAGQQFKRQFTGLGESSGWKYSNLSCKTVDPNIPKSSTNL
UniProt P19490, residues 19-907: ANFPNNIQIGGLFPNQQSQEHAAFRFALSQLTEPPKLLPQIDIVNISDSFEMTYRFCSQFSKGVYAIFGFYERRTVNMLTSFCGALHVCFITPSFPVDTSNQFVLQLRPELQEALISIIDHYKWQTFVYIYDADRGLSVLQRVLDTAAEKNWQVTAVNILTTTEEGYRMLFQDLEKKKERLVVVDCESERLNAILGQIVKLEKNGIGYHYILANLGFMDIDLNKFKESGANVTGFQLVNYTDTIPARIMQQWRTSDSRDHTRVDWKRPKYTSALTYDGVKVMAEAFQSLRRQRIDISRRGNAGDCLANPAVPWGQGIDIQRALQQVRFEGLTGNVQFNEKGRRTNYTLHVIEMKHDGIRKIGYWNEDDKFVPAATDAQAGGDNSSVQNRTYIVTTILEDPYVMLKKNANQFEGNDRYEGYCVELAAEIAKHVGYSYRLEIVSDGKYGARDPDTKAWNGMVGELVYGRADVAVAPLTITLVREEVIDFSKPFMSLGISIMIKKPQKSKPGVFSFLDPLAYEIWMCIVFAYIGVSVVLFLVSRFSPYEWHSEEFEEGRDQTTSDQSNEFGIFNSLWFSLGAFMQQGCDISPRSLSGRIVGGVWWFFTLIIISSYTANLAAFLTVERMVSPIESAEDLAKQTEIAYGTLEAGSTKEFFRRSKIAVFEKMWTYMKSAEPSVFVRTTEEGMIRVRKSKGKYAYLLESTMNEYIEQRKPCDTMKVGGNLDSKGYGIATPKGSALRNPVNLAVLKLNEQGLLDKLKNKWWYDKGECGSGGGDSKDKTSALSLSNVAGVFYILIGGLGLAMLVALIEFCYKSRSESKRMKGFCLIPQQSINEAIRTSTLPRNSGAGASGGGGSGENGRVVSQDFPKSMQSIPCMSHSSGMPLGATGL

Legend:
Assay in all cases: co-IP; tsA201 cells co-transfected with GluA1 and CPT1C-GFP (or mutant), 48 h; lysis in 1% Triton TX-100, 50 mM Tris-HCl pH 8, 150 mM NaCl, 4°C; IP overnight with anti-GluA1-NT or anti-GFP, Protein-A sepharose; Western blot; in one experiment cells were treated 24 h with 50 μM Palmostatin B or 0.1% DMSO (interaction not altered)
CPT1C(H470A)-GFP = CPT1C(H470A)-GFP (UniProt Q8TCG5)
CPT1C-EGFP = CPT1C-EGFP (UniProt F1LN46)
[1] = molecular target: GluA1 subunit of AMPARs (recombinant, tsA201 cells) (UniProt P19490)

Substance	binding (CPT1C(H470A)-GFP)	binding (CPT1C-EGFP)	binding [1]
GluA1 subunit of AMPARs (recombinant, tsA201 cells) (from UniProt P19490 19-907) (receptor)	binds	binds	–
CPT1C-EGFP (from UniProt F1LN46) (enzyme)	–	–	binds
CPT1C(H470A)-GFP (from UniProt Q8TCG5) (enzyme)	–	–	binds
